From ChEMBL document CHEMBL3988442, “University of Dundee, Small-Polar-MMV Screening Library” (2021).

Values are the deposited “Percent Effect”, in %.
The controls that fix the scale are not given in the record; negative values are as filed.
This is an unselected part of the compounds tested.

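Whole-cell growth test on Mycobacterium tuberculosis, read after 3 days in glucose-containing 7H9 medium; the read-out is not stated. Concentration: 500 µM. The record gives no direction; compounds that gave an IC50 in retests scored well above the rest, so higher reads as more growth inhibition. Of about 18,000 compounds tested this way, about 1,400 (7.9%) reached 50% or more in at least one test.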

Compound,effect
CN1N=C(C(=O)NCc2cccc(C#N)c2)CCC1=O,12.13
CCCS(=O)(=O)N1C[C@H](c2ccc(OC)cc2)[C@@H](N)C1,33.93
Cc1cc(C)cc(C(=O)NCCCNS(C)(=O)=O)c1,20.3
COc1cc2c(cc1CN1CCNC(=O)CC1)CCC2,20.26
NC(=O)c1cnn(Cc2ccc3c(c2)CCC3)c1,21.06
O=C(CNc1ccccc1F)N1CCCCC1,72.06
CC(C)C1CCCN1CCN (stereo not given),17.35
Cc1ccc(NC(=O)N2CCCC(N)C2)c(F)c1 (stereo not given),23.13
Cc1noc(NCc2cccc3cn[nH]c23)n1,23.35
O=C(Nc1ccc(-n2cncn2)cc1)C1CCCN1 (stereo not given),-1.237
COCCOc1ccc(C(=O)NCc2ccco2)cc1,75.99
CCc1nc(CNc2ccncc2C(N)=O)cs1,-6.311
Cc1noc(C)c1CN1CCCC(C(N)=O)C1 (stereo not given),5.496
N[C@H]1CN(S(=O)(=O)c2cccc(F)c2)C[C@@H]1C1CC1,24
COc1ccc(C(C)NC(CO)CO)c(Br)c1 (stereo not given),15.47
CNC(=O)C1CCCN1C(=O)c1ccccc1O (stereo not given),14.71
COCCN(c1ccncc1)S(=O)(=O)c1cccs1,5.186
c1cc(CNc2ncnc3[nH]ncc23)c2c(c1)OCO2,21.99
CCOC(=O)N1CCCC(C(=O)N2CC[C@@H](OC)C2)C1 (stereo not given in full),17.03
Nc1nccnc1C(=O)NCCCN1CCCC1=O,15.15
N[C@@H]1C[C@H]1c1cccc(F)c1,33.72
CCN(C1CCN(c2cncc(Cl)n2)CC1)S(C)(=O)=O,45.83
CC(Oc1ccccc1C#N)C(=O)N(C)C (stereo not given),2.751
Cc1cncc(C(=O)Nc2sc(C)cc2C(N)=O)c1,30.35
O=C(c1c[nH]c(=O)c2ccccc12)N1CCOCC1,2.198
Cc1cccc(S(=O)(=O)NCCN)c1Br,24.98
CC(=O)c1cnc2ccsc2c1,-11.36
COc1ncccc1CNC(=O)NC1CCS(=O)(=O)C1 (stereo not given),6.895
NC(=O)CN(CCCO)Cc1ccccc1,12.34
NC1CCN(C(=O)c2ccccc2O)CC1,8.622
CCOc1cccc(NC(=O)N(CC)CC)n1,22.91
CS(=O)(=O)c1ccc(-c2cnc(N)cn2)cc1,4.865
CCc1nnsc1C(=O)NCc1csc(C)n1,11.08
O=S(=O)(NC1CNC1)c1ccco1,13.71
CN1CCN(C(=O)Cc2cccc3cccnc23)CC1,4.859
O=C(Cc1ccsc1)N1CCN(c2ncccn2)CC1,-17.82
CS(=O)(=O)N1CCN(c2cccc(O)c2)CC1,12.12
CC(C)N(C)C(=O)N(C)CC(=O)Nc1ccc(Br)cn1,-1.054
O=S(=O)(CCN1CCCC(O)C1)c1ccc(Br)cc1 (stereo not given),97.17
CNC(=O)C1CCCN1C(=O)C(C)(C)C (stereo not given),5.895
NCCCSc1ccccn1,7.215
Cc1nc(COc2ccc(C(=O)OCC#N)cc2)no1,63.98
CC(=O)c1cnccn1,2.642
COCc1noc([C@@H]2CN(C3CCC3)C[C@H]2CO)n1,-5.504
CC(=O)Nc1cnn(CC2CCCO2)c1 (stereo not given),-6.213
CC(CNC(=O)NCc1cc[nH]n1)N1CCOCC1 (stereo not given),11.63
Cc1ccc(F)cc1C(=O)NCC1CCNCC1,5.075
N#Cc1cccc(CN2CCCC(O)C2)c1 (stereo not given),18.15
Fc1cccc2c1CNCCO2,0.9823
CC1Cc2ccccc2N1CCN (stereo not given),77.97
CC(C)c1nsc(NC2CCC(=O)N(C)C2)n1 (stereo not given),-4.449
Cc1cnc(NC(=O)CCCNC(=O)C(C)(C)C)s1,3.506
Cc1ccsc1CN(C)C(=O)CCN(C)S(C)(=O)=O,29.39
COCC(=O)N1CCC2(CCCNC2)C1 (stereo not given),-9.035
O=c1c2ccccc2ncn1CCN1CCOCC1,7.31
CN(C)C(=O)CCc1cccnc1,2.1
CCc1nc(C#N)c(NCc2ccc3c(c2)OCO3)o1,79.87
CCn1ccnc1C1CCN(C(=O)CCOC)CC1,10.85